Where “and” joins values, the source holds several entries; their conditions need not be identical. Equal entries are not always repeated. This continues a long series; more values of the same kind are listed elsewhere.
Test: Weights and survival (Example 3, SCI-03)
Assay type: in vivo, Syrian Golden Hamsters
Conditions: individual animals
Experimental: All animals were weighed daily and their survival recorded, in order to assess possible differences in animal weight among treatment groups as an indication for mucositis severity and/or possible toxicity resulting from the treatments.
There were no significant differences in weight changes between study groups. The mean daily percent weight change data was evaluated. The saline treated control hamsters gained an average of 76.3% of their starting weight during the study. Hamsters in the group receiving SCV-07 at 100 μg/kg on days −1 to 29 gained an average of 80.7% of their starting weight during the study. Hamsters in the group receiving SCV-07 at 100 μg/kg on days of radiation only gained an average of 66.3% of their starting weight during the study. Hamsters in the group receiving SCV-07 at 100 μg/kg on day −1, day 4, day 5 and days 10-29 gained an average of 69.7% of their starting weight during the study. The significance of these differences was evaluated by calculating the area-under-the-curve (AUC) for the weight gain of each animal, and then comparing the different treatment groups using a One-Way ANOVA test.

With N[C@H](CCC(=O)N[C@@H](Cc1c[nH]c2ccccc12)C(=O)O)C(=O)O [SCV-07, γ-D-glutamyl-L-tryptophan] the Animal weight (Group 2 (SCV-07 day −1 to day 29), day 0) was 86 and 82 (2×) and 84 and 77 (2×) and 87 (2×) and 85 and 70, the Animal weight (Group 2 (SCV-07 day −1 to day 29), day 1) was 89 (2×) and 82 and 84 and 76 (2×) and 88 and 83 and 87 and 74 and the Animal weight (Group 2 (SCV-07 day −1 to day 29), day 2) was 78 and 83 and 87 (2×) and 79 and 92 and 91 and 80 and 88 and 76. For the same compound, the Animal weight (Group 2 (SCV-07 day −1 to day 29), day 3) was 77 and 86 and 88 (2×) and 79 (2×) and 95 and 94 and 90 and 75, the Animal weight (Group 2 (SCV-07 day −1 to day 29), day 4) was 80 and 85 and 88 and 82 and 95 and 93 and 87 and 79 and 91 and 76 and the Animal weight (Group 2 (SCV-07 day −1 to day 29), day 5) was 83 and 88 and 92 and 84 (2×) and 98 and 97 and 91 and 94 and 79. The Animal weight (Group 2 (SCV-07 day −1 to day 29), day 6) was 88 and 92 and 94 and 87 and 102 (2×) and 95 and 86 and 98 and 79, the Animal weight (Group 2 (SCV-07 day −1 to day 29), day 7) was 88 and 91 and 93 (2×) and 87 and 102 and 99 and 85 and 100 and 84 and the Animal weight (Group 2 (SCV-07 day −1 to day 29), day 8) was 89 and 90 and 94 and 87 (2×) and 103 and 99 and 95 and 98 and 84. For the same compound, the Animal weight (Group 2 (SCV-07 day −1 to day 29), day 9) was 94.5 and 93.4 and 98.3 and 90.6 and 108.5 and 103.5 and 99.7 and 88.2 and 102.3 and 88.6, the Animal weight (Group 2 (SCV-07 day −1 to day 29), day 10) was 95 and 92 (3×) and 100 and 108 and 105 and 97 and 104 and 90 and the Animal weight (Group 2 (SCV-07 day −1 to day 29), day 11) was 98 and 95 and 99 and 96 and 110 and 107 and 101 and 92 and 104 and 94. For the same compound, the Animal weight (Group 2 (SCV-07 day −1 to day 29), day 12) was 100 and 96 and 103 and 97 (2×) and 114 and 111 and 104 and 95 and 107, the Animal weight (Group 2 (SCV-07 day −1 to day 29), day 13) was 103 and 97 (2×) and 104 and 115 and 111 and 106 and 94 and 108 and 98 and the Animal weight (Group 2 (SCV-07 day −1 to day 29), day 14) was 104 and 96 and 106 and 98 (2×) and 116 and 109 and 105 and 95 and 108. For the same compound, the Animal weight (Group 2 (SCV-07 day −1 to day 29), day 15) was 104 and 97 and 105 and 99 and 117 and 108 (2×) and 107 and 94 and 98, the Animal weight (Group 2 (SCV-07 day −1 to day 29), day 16) was 105 and 99 (3×) and 107 and 117 and 109 and 106 and 96 and 111 and the Animal weight (Group 2 (SCV-07 day −1 to day 29), day 17) was 108 (2×) and 100 and 101 and 120 and 111 and 107 and 97 and 110 and 103. The Animal weight (Group 2 (SCV-07 day −1 to day 29), day 18) was 108 and 98 (2×) and 109 and 103 and 120 and 113 (2×) and 118 and 106, the Animal weight (Group 2 (SCV-07 day −1 to day 29), day 19) was 113 and 104 and 114 and 107 and 124 and 116 and 122 and 102 and 115 and 108 and the Animal weight (Group 2 (SCV-07 day −1 to day 29), day 20) was 114 and 105 and 116 (2×) and 109 and 126 and 117 and 121 and 103 and 111. For the same compound, the Animal weight (Group 2 (SCV-07 day −1 to day 29), day 21) was 116 and 107 and 117 and 110 and 127 and 122 and 126 and 104 and 119 and 118, the Animal weight (Group 2 (SCV-07 day −1 to day 29), day 22) was 117 (2×) and 108 and 119 and 112 and 127 (2×) and 123 and 105 and 120 and the Animal weight (Group 2 (SCV-07 day −1 to day 29), day 23) was 120 (3×) and 111 and 114 and 130 (2×) and 126 and 108 and 118. The Animal weight (Group 2 (SCV-07 day −1 to day 29), day 24) was 122 and 113 and 124 and 116 and 132 and 128 and 130 and 111 and 123 and 120, the Animal weight (Group 2 (SCV-07 day −1 to day 29), day 25) was 123 and 113 and 124 and 117 and 132 (2×) and 128 and 110 and 126 and 121 and the Animal weight (Group 2 (SCV-07 day −1 to day 29), day 26) was 129 (3×) and 117 and 121 and 137 and 132 and 136 and 114 and 124. For the same compound, the Animal weight (Group 2 (SCV-07 day −1 to day 29), day 27) was 131 and 116 and 130 (2×) and 124 and 138 and 133 and 137 and 115 and 126, the Animal weight (Group 2 (SCV-07 day −1 to day 29), day 28) was 134 and 118 and 130 and 124 and 139 and 135 and 140 and 114 and 133 and 131 and the Animal weight (Group 2 (SCV-07 day −1 to day 29), day 29) was 132 and 118 and 130 and 123 and 139 and 134 and 140 and 114 and 133 and 127. The Animal weight (Group 2 (SCV-07 day −1 to day 29), day 30) was 136 and 122 and 137 (2×) and 128 and 142 and 138 and 144 and 120 and 133, the Animal weight (Group 2 (SCV-07 day −1 to day 29), day 31) was 138 (3×) and 124 and 131 and 143 and 142 and 146 and 121 and 139 and the Animal weight (Group 2 (SCV-07 day −1 to day 29), day 32) was 141 (2×) and 126 and 120 and 143 and 142 and 147 and 122 and 139 and 138. The Animal weight (Group 2 (SCV-07 day −1 to day 29), day 33) was 146 and 131 and 136 and 145 and 147 and 148 and 152 and 125 and 144 (2×), the Animal weight (Group 2 (SCV-07 day −1 to day 29), day 34) was 145 (2×) and 130 and 136 and 146 (2×) and 147 (2×) and 153 and 125 and the Animal weight (Group 2 (SCV-07 day −1 to day 29), day 35) was 146 (2×) and 131 and 136 and 145 and 147 (2×) and 148 and 154 and 127. The Animal weight (Group 2 (SCV-07 day −1 to day 29), day −1) was 82 (3×) and 80 and 73 and 83 and 81 and 76 and 84 and 69, the Animal weight (Group 3 (SCV-07 on days of radiation 0-3 and 6-9), day 0) was 92 and 78 and 98 and 82 (2×) and 84 and 89 and 87 and 79 and 76 and the Animal weight (Group 3 (SCV-07 on days of radiation 0-3 and 6-9), day 1) was 92 and 79 (2×) and 95 and 82 and 86 and 87 and 83 and 78 and 73. For the same compound, the Animal weight (Group 3 (SCV-07 on days of radiation 0-3 and 6-9), day 2) was 97 and 80 (2×) and 102 and 85 and 88 (2×) and 84 and 81 and 74, the Animal weight (Group 3 (SCV-07 on days of radiation 0-3 and 6-9), day 3) was 94 and 80 and 104 and 82 and 84 and 86 and 89 and 88 and 83 and 76 and the Animal weight (Group 3 (SCV-07 on days of radiation 0-3 and 6-9), day 4) was 95 and 82 and 102 and 81 and 86 (2×) and 88 and 85 and 83 and 74. For the same compound, the Animal weight (Group 3 (SCV-07 on days of radiation 0-3 and 6-9), day 5) was 100 and 85 (2×) and 108 and 88 (2×) and 89 and 93 and 87 and 77, the Animal weight (Group 3 (SCV-07 on days of radiation 0-3 and 6-9), day 6) was 104 and 89 (2×) and 111 and 88 and 90 and 91 and 97 and 94 and 78 and the Animal weight (Group 3 (SCV-07 on days of radiation 0-3 and 6-9), day 7) was 106 and 90 (2×) and 115 and 89 (2×) and 91 and 97 and 93 and 78. For the same compound, the Animal weight (Group 3 (SCV-07 on days of radiation 0-3 and 6-9), day 8) was 103 and 88 (3×) and 113 and 93 and 90 and 97 and 94 and 78, the Animal weight (Group 3 (SCV-07 on days of radiation 0-3 and 6-9), day 9) was 110.6 and 94.6 and 117.4 and 92.6 and 94.4 and 93.7 and 101.7 and 97.5 and 91.6 and 79.2 and the Animal weight (Group 3 (SCV-07 on days of radiation 0-3 and 6-9), day 10) was 111 and 95 (2×) and 119 and 93 and 96 and 103 and 98 and 94 and 80. The Animal weight (Group 3 (SCV-07 on days of radiation 0-3 and 6-9), day 11) was 112 and 96 and 122 and 95 and 99 (2×) and 97 and 104 and 94 and 81, the Animal weight (Group 3 (SCV-07 on days of radiation 0-3 and 6-9), day 12) was 102 and 110 and 125 and 97 and 101 and 98 and 103 and 99 and 96 and 84 and the Animal weight (Group 3 (SCV-07 on days of radiation 0-3 and 6-9), day 13) was 114 and 101 (2×) and 124 and 98 and 103 and 109 and 105 and 96 and 84. For the same compound, the Animal weight (Group 3 (SCV-07 on days of radiation 0-3 and 6-9), day 14) was 113 and 100 (3×) and 125 and 99 and 112 and 103 and 97 and 84, the Animal weight (Group 3 (SCV-07 on days of radiation 0-3 and 6-9), day 15) was 112 and 100 and 126 and 97 and 102 and 101 and 111 and 105 and 96 and 82 and the Animal weight (Group 3 (SCV-07 on days of radiation 0-3 and 6-9), day 16) was 113 (2×) and 103 and 129 and 97 and 101 and 100 and 106 and 99 and 85. For the same compound, the Animal weight (Group 3 (SCV-07 on days of radiation 0-3 and 6-9), day 17) was 118 and 106 (2×) and 132 and 100 and 104 and 101 and 115 and 102 and 86.

From patent publication US7906486B2, “Method of treating or preventing tissue deterioration, injury or damage due to disease of mucosa” (SciClone Pharmaceuticals, Inc., priority 2007, dated 2011)
